Data source: PubChem BioAssay AID1259308 (NCATS, 2017)

Test: 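Candidate targets for better recombinant protein yield in mammalian cells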 (primary screen)
Cells: human HEK293 embryonic kidney cells stably expressing firefly luciferase (HEK-CMV-Luc2-Hygro)
Reagents: single siRNA against human genes, 0.8 pmol siRNA per well
Duration: 72 h
Measured: 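Reporter luminescence and viable-cell signal on separate replicate plates, given as percent of non-targeting control and median/MAD z-scores, plus per-cell luciferase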
Reading the numbers: total luciferase, z-score: higher = more reporter protein produced
Hit rule: 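An siRNA counts as active if its total luciferase robust z-score exceeds 3; genes with two or more such siRNAs out of three were retested with fresh siRNAs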
Meaning of the calls: active = raised luciferase; inactive = no rise
The deposit covers about 59,000 reagents; this is a random part of them. About 1,510 of them (2.6%) count as active. 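Calls use total luciferase alone and ignore viability, so some active siRNAs may act by altering cell number.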 Further read-outs or replicates are left out here.

target | PubChem SID | total luciferase, z-score | Call
SELENOW (GeneID 6415) | SID160749194 | 1.23 | inactive
SELENOW (GeneID 6415) | SID160749300 | -0.0887 | inactive
SELENOW (GeneID 6415) | SID160749406 | -1.29 | inactive
CCDC74A (GeneID 90557) | SID160753741 | -0.681 | inactive
CCDC74A (GeneID 90557) | SID160753742 | 0.928 | inactive
CCDC74A (GeneID 90557) | SID160753743 | -0.505 | inactive
DNAJC4 (GeneID 3338) | SID160731093 | 1.72 | inactive
DNAJC4 (GeneID 3338) | SID160775423 | 0.274 | inactive
DNAJC4 (GeneID 3338) | SID160775424 | -0.912 | inactive
AMBRA1 (GeneID 55626) | SID160743938 | -1.4 | inactive
AMBRA1 (GeneID 55626) | SID160743939 | -1.19 | inactive
AMBRA1 (GeneID 55626) | SID160743940 | -0.429 | inactive
CBLN1 (GeneID 869) | SID160737331 | -0.506 | inactive
CBLN1 (GeneID 869) | SID160737341 | 0.0865 | inactive
CBLN1 (GeneID 869) | SID160737352 | 0.967 | inactive
ADAMTSL4 (GeneID 54507) | SID160741817 | 1.18 | inactive
ADAMTSL4 (GeneID 54507) | SID160741818 | 0.986 | inactive
ADAMTSL4 (GeneID 54507) | SID160741819 | -0.918 | inactive
SYNCRIP (GeneID 10492) | SID160728569 | -1.87 | inactive
SYNCRIP (GeneID 10492) | SID160728570 | -0.969 | inactive
SYNCRIP (GeneID 10492) | SID160728571 | -0.317 | inactive
KLRD1 (GeneID 3824) | SID160776318 | -0.0633 | inactive
KLRD1 (GeneID 3824) | SID160776319 | 0.0685 | inactive
KLRD1 (GeneID 3824) | SID160776320 | 0.756 | inactive
IL36G (GeneID 56300) | SID160745016 | 0.194 | inactive
IL36G (GeneID 56300) | SID160745018 | 0.0698 | inactive
IL36G (GeneID 56300) | SID160745019 | -1.26 | inactive
OR51A4 (GeneID 401666) | SID160767360 | 0.843 | inactive
OR51A4 (GeneID 401666) | SID160767361 | -1.17 | inactive
OR51A4 (GeneID 401666) | SID160767362 | -0.604 | inactive
USHBP1 (GeneID 83878) | SID160751478 | -0.246 | inactive
USHBP1 (GeneID 83878) | SID160751479 | 0.385 | inactive
USHBP1 (GeneID 83878) | SID160751480 | -1.59 | inactive
UBA1 (GeneID 7317) | SID160772914 | 0.0722 | inactive
UBA1 (GeneID 7317) | SID160773012 | 0.289 | inactive
UBA1 (GeneID 7317) | SID160773111 | -0.637 | inactive
INTS4 (GeneID 92105) | SID160754184 | -0.441 | inactive
INTS4 (GeneID 92105) | SID160754185 | 2.65 | inactive
INTS4 (GeneID 92105) | SID160754186 | 2.26 | inactive
TNS2 (GeneID 23371) | SID160730841 | -0.0814 | inactive
TNS2 (GeneID 23371) | SID160736135 | 1.78 | inactive
TNS2 (GeneID 23371) | SID160736136 | 0.567 | inactive
CDS1 (GeneID 1040) | SID160741333 | 0.0851 | inactive
CDS1 (GeneID 1040) | SID160741343 | -1.73 | inactive
CDS1 (GeneID 1040) | SID160741353 | 1.38 | inactive
IKZF4 (GeneID 64375) | SID160747691 | 0.683 | inactive
IKZF4 (GeneID 64375) | SID160747692 | -0.379 | inactive
IKZF4 (GeneID 64375) | SID160747693 | 3.42 | active
HIC1 (GeneID 3090) | SID160723857 | -2.05 | inactive
HIC1 (GeneID 3090) | SID160731062 | 0.844 | inactive
HIC1 (GeneID 3090) | SID160774938 | -0.279 | inactive
ZNF99 (GeneID 7652) | SID160719130 | -0.905 | inactive
ZNF99 (GeneID 7652) | SID160719131 | 1.14 | inactive
ZNF99 (GeneID 7652) | SID160719132 | -0.148 | inactive
ZNF77 (GeneID 58492) | SID160746838 | 3.76 | active
ZNF77 (GeneID 58492) | SID160746840 | 1.35 | inactive
ZNF77 (GeneID 58492) | SID160746841 | 0.0855 | inactive

Laid out differently: results already given.
{"target":"IL36G (GeneID 56300)","PubChem SID":"SID160745019","total luciferase, z-score":-1.26,"Call":"inactive"}
{"target":"OR51A4 (GeneID 401666)","PubChem SID":"SID160767360","total luciferase, z-score":0.843,"Call":"inactive"}
{"target":"OR51A4 (GeneID 401666)","PubChem SID":"SID160767361","total luciferase, z-score":-1.17,"Call":"inactive"}
{"target":"OR51A4 (GeneID 401666)","PubChem SID":"SID160767362","total luciferase, z-score":-0.604,"Call":"inactive"}
{"target":"USHBP1 (GeneID 83878)","PubChem SID":"SID160751478","total luciferase, z-score":-0.246,"Call":"inactive"}
